Record: PubChem BioAssay AID1259275 (Sanger Institute, 2017)
This is an unselected part of 794 deposited reagents. 13 of them (1.6%) were called active. 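Calls mark knock-downs lethal by themselves, not drug synergy; drugs went in a day after transfection, with DMSO as vehicle.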 No viability above 1 is reported: the scale is capped. Not stated in the record: the amount of reagent, the time to read-out.

Purpose: 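Knock-downs that cut viability on their own or combined with BYL719, cetuximab or trametinib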 (primary screen)
Cells: COLO320HSR human colorectal cancer cells
Reagents: siRNA pool against human genes
Challenge: anchor drug added one day after transfection: BYL719 at 1 µM, cetuximab at 5 µg/ml or trametinib at 10 nM; DMSO as vehicle arm
Measurement: 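Replicate-mean viability versus non-targeting pool control, robust z-score without drug, and per-drug synergy scores for BYL719 at 1 µM, cetuximab at 5 µg/ml and trametinib at 10 nM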
Direction: robust z-score, siRNA alone: higher = more viable cells; strongly negative means essential; viability, knock-down alone (DMSO): higher = more viable cells; synergy score with BYL719 and synergy score with cetuximab and synergy score with trametinib: higher = stronger combined killing with drug
Call rule: 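Essential means the knock-down by itself gives a robust z-score lower than -3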
Calls: active = essential (siRNA alone); inactive = no change (siRNA alone)

Target gene,"robust z-score, siRNA alone","viability, knock-down alone (DMSO) (fraction of control)",synergy score with BYL719,synergy score with cetuximab,synergy score with trametinib,Outcome
SHPK,0.637,0.992,-0.0569,-0.0751,-0.0322,inactive
PTK2B,-0.485,0.891,-0.0177,-0.189,-0.0617,inactive
PI4KB,0.726,1,0.0575,0.014,-0.0259,inactive
PFKM,0.329,0.964,-0.176,-0.122,-0.00793,inactive
SRPK1,-1,0.844,-0.17,-0.174,-0.0718,inactive
PIP4K2B,0.726,1,-0.168,-0.00211,-0.0259,inactive
SRPK3,0.726,1,-0.0961,-0.0893,-0.0259,inactive
PHKG1,0.463,0.976,-0.0558,-0.0541,-0.0491,inactive
MYLK4,0.726,1,-0.184,-0.0893,-0.0259,inactive
MASTL,0.726,1,-0.106,-0.0893,0.00543,inactive
GRK1,0.726,1,-0.141,-0.0799,-0.0259,inactive
NLK,-1.15,0.831,-0.11,-0.107,-0.0457,inactive
PPP2R1A,0.535,0.983,-0.136,-0.105,0.0499,inactive
EPHA8,0.726,1,-0.0946,-0.0893,-0.0259,inactive
LYN,-0.0237,0.932,-0.131,-0.0223,-0.0574,inactive
MAPK8,0.726,1,-0.183,-0.0893,-0.0259,inactive
SPEG,0.726,1,-0.179,-0.00216,-0.00151,inactive
IP6K3,-1.51,0.798,-0.0833,-0.149,-0.0945,inactive
CDK20,0.726,1,-0.0165,-0.0893,0.00494,inactive
RPS6KA6,0.726,1,-0.263,-0.0893,-0.0259,inactive
PCBP1,-0.375,0.901,-0.155,-0.0442,-0.114,inactive
PGK1,-0.477,0.891,-0.114,-0.0507,-0.0962,inactive
PRKG2,-1.24,0.822,-0.0868,-0.0581,-0.0539,inactive
MAP3K9,0.726,1,-0.00547,-0.0893,-0.0259,inactive
WNK4,0.726,1,-0.0516,-0.0893,-0.0259,inactive
KSR1,-2.27,0.729,-0.0655,-0.0836,-0.119,inactive
PIP5K1B,0.00741,0.935,0.000352,-0.0457,-0.0342,inactive
PRKCA,0.357,0.967,-0.142,-0.103,-0.0584,inactive
CPNE3,-0.368,0.901,-0.0573,-0.167,-0.122,inactive
ADCK5,0.726,1,-0.02,-0.0893,-0.0111,inactive
TAF1L,0.726,1,-0.184,-0.0589,-0.0165,inactive
ERBB2,-1.15,0.83,-0.198,-0.0435,-0.191,inactive
FLT1,0.726,1,-0.178,-0.0893,-0.0259,inactive
DLG4,0.726,1,-0.0986,0.00622,-0.0259,inactive
CHKA,-0.751,0.867,0.0489,-0.0215,-0.00921,inactive
WHR1,0.726,1,-0.0362,-0.0539,0.00285,inactive
CHEK1,-2.37,0.72,-0.0926,-0.214,-0.22,inactive
CSNK1D,0.38,0.969,-0.115,-0.102,-0.0294,inactive
SRC,0.726,1,-0.165,-0.0893,-0.0259,inactive
TSSK3,0.0743,0.941,-0.127,-0.138,0.0197,inactive
MAPK14,-1.04,0.841,-0.00349,0.00345,0.0689,inactive
PRKD2,0.672,0.995,-0.167,-0.0938,-0.0307,inactive
MATK,-0.502,0.889,-0.106,-0.114,-0.113,inactive
ERBB4,0.726,1,-0.118,-0.0893,-0.0259,inactive
PIKFYVE,0.665,0.994,-0.114,-0.0309,-0.0313,inactive
DSTYK,0.726,1,-0.205,-0.0893,-0.0259,inactive
CHD4,-2.22,0.734,-0.043,-0.0136,-0.0709,inactive
DNMT3A,-0.244,0.912,-0.189,-0.169,-0.0171,inactive
PRAG1,-1.18,0.828,-0.0261,-0.225,-0.0625,inactive
SLK,0.229,0.955,-0.229,-0.0308,0.0243,inactive
